Consider four molecules from paper doi:10.1101/2020.06.26.173831.

One test addresses T1, Get3-GFP (S. cerevisiae) (UniProt Q12154).
T1 sequence: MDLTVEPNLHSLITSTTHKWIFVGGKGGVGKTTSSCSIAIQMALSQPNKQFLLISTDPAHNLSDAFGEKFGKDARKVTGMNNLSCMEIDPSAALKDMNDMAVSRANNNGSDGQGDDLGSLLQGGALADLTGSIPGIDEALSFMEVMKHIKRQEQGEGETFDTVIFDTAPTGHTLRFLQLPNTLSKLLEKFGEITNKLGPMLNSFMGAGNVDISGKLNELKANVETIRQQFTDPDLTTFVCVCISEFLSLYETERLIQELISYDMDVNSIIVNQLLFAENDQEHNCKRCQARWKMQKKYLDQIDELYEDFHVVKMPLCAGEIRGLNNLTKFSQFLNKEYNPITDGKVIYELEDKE
As to the kind of experiment: co-IP.

Test [1] concerns the target T2, GFP-tagged Oac1 (S. cerevisiae) (UniProt P32332).
T2 sequence: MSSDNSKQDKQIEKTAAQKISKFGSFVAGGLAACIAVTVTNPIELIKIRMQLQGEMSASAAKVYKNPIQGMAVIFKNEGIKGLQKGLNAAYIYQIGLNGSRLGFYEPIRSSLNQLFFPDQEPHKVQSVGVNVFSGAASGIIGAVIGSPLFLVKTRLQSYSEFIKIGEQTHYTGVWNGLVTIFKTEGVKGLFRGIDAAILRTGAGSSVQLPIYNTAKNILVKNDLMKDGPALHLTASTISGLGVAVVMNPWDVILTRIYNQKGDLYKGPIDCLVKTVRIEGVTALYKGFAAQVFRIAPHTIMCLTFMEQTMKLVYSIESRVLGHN
As to the kind of experiment: co-IP.

No constants are given. Whether binding was seen depends on the method and setting. Binding seen in cells or lysates may run through a third protein. Some binding calls cover weakened binding; strength is not graded here. Sequences can lack the tags named with a protein.

B1: Oac1-FLAG (protein, UniProt P32332 1-324)
chain: T2 sequence
Consider B1, for which the binding entry in the test with Get3-GFP (S. cerevisiae) was “binds”.

B2: FLAG-tagged Get3 (protein, UniProt Q12154 1-354)
chain: T1 sequence
Consider B2, for which the binding result in test [1] is listed as “binds”.

B3: Tom70 (protein, UniProt P07213 1-617)
chain: MKSFITRNKTAILATVAATGTAIGAYYYYNQLQQQQQRGKKNTINKDEKKDTKDSQKETEGAKKSTAPSNPPIYPVSSNGEPDFSNKANFTAEEKDKYALALKDKGNQFFRNKKYDDAIKYYNWALELKEDPVFYSNLSACYVSVGDLKKVVEMSTKALELKPDYSKVLLRRASANEGLGKFADAMFDLSVLSLNGDFNDASIEPMLERNLNKQAMSKLKEKFGDIDTATATPTELSTQPAKERKDKQENLPSVTSMASFFGIFKPELTFANYDESNEADKELMNGLSNLYKRSPESYDKADESFTKAARLFEEQLDKNNEDEKLKEKLAISLEHTGIFKFLKNDPLGAHEDIKKAIELFPRVNSYIYMALIMADRNDSTEYYNYFDKALKLDSNNSSVYYHRGQMNFILQNYDQAGKDFDKAKELDPENIFPYIQLACLAYRENKFDDCETLFSEAKRKFPEAPEVPNFFAEILTDKNDFDKALKQYDLAIELENKLDGIYVGIAPLVGKATLLTRNPTVENFIEATNLLEKASKLDPRSEQAKIGLAQMKLQQEDIDEAITLFEESADLARTMEEKLQAITFAEAAKVQQRIRSDPVLAKKIQETLAKLREQGLM
B3: the binding entry in the test with Get3-GFP (S. cerevisiae) is reported as “no binding”.

B4: Alo1-FLAG (protein, UniProt P54783 1-526)
chain: MSTIPFRKNYVFKNWAGIYSAKPERYFQPSSIDEVVELVKSARLAEKSLVTVGSGHSPSNMCVTDEWLVNLDRLDKVQKFVEYPELHYADVTVDAGMRLYQLNEFLGAKGYSIQNLGSISEQSVAGIISTGSHGSSPYHGLISSQYVNLTIVNGKGELKFLDAENDPEVFKAALLSVGKIGIIVSATIRVVPGFNIKSTQEVITFENLLKQWDTLWTSSEFIRVWWYPYTRKCVLWRGNKTTDAQNGPAKSWWGTKLGRFFYETLLWISTKIYAPLTPFVEKFVFNRQYGKLEKSSTGDVNVTDSISGFNMDCLFSQFVDEWGCPMDNGLEVLRSLDHSIAQAAINKEFYVHVPMEVRCSNTTLPSEPLDTSKRTNTSPGPVYGNVCRPFLDNTPSHCRFAPLENVTNSQLTLYINATIYRPFGCNTPIHKWFTLFENTMMVAGGKPHWAKNFLGSTTLAAGPVKKDTDYDDFEMRGMALKVEEWYGEDLKKFRKIRKEQDPDNVFLANKQWAIINGIIDPSELSD
As to B4, the binding entry with Get3-GFP (S. cerevisiae) is “no binding”.
